Measurements: patent publication US6974801B2, “Inhibitors and methods of use thereof” (The Trustees of Dartmounth College, priority 2002, dated 2005)
Some results were stated once for a whole list of compounds, not compound by compound. At least one structure is not confirmed: it was looked up by name or label, or the drawing left a doubt. Some compounds share one range, which may span the group rather than tell each member.

System: NO production induced by INF-γ in mouse macrophages
Assay: Inhibition of NO production induced by IFN-γ in mouse macrophages (Griess reaction)
Type: cell-based
Details: for times more potent than CDDO and dexamethasone: text b118, about, NO production assay; for potency compared with CDDO (SAR statement): SAR on substituents at C-17, Tables 1-3
Description: The procedure for determining IC50 on NO production induced by INF-γ in mouse macrophages is as follows. Macrophages were harvested from female mice injected intraperitoneally four days previously with 4% thioglycollate. These cells were seeded in 96-well tissue culture plates and incubated with 4 ng/mL INF-γ in the presence or absence of inhibitory test compounds. After 48 hours NO production, measured as […] by the Griess reaction, was determined. This method is described fully by Ding et al. (1990) and Bogdan and Ding, (1992).

| SMILES | times more potent than CDDO and dexamethasone | potency compared with CDDO (SAR statement) |
| --- | --- | --- |
| CC1(C)CC[C@]2(C#N)CC[C@]3(C)[C@H](C(=O)C=C4[C@@]5(C)C=C(C#N)C(=O)C(C)(C)[C@@H]5CC[C@]43C)[C@@H]2C1 [Compound 1, 2-cyano-3,12-dioxooleana-1,9(11)-dien-28-onitrile] | 100-10000 times | – |
| CC(=O)OC[C@H]1OC(OC(=O)[C@]23CCC(C)(C)CC2C2C(=O)C=C4[C@@]5(C)C=C(C#N)C(=O)C(C)(C)[C@@H]5CC[C@@]4(C)[C@]2(C)CC3)[C@H](OC(C)=O)C(OC(C)=O)[C@@H]1OC(C)=O (stereo partly drawn) [Compound 2] | – | more potent than CDDO |
| CC1(C)CC[C@]2(C(=O)n3ccnc3)CC[C@]3(C)[C@H](C(=O)C=C4[C@@]5(C)C=C(C#N)C(=O)C(C)(C)[C@@H]5CC[C@]43C)[C@@H]2C1 [Compound 6, 1-(2-cyano-3,12-dioxooleana-1,9(11)-dien-28-oyl)imidazole] | 100-10000 times | – |
| Cc1nccn1C(=O)[C@]12CCC(C)(C)CC1C1C(=O)C=C3[C@@]4(C)C=C(C#N)C(=O)C(C)(C)[C@@H]4CC[C@@]3(C)[C@]1(C)CC2 (stereo partly drawn) [Compound 9, 1-(2-cyano-3,12-dioxooleana-1,9(11)-dien-28-oyl)-2-methylimidazole] | 100-10000 times | – |
| Cc1cn(C(=O)[C@]23CCC(C)(C)CC2C2C(=O)C=C4[C@@]5(C)C=C(C#N)C(=O)C(C)(C)[C@@H]5CC[C@@]4(C)[C@]2(C)CC3)cn1 (stereo partly drawn) [Compound 10, 1-(2-cyano-3,12-dioxooleana-1,9(11)-dien-28-oyl)-4-methylimidazole] | 100-10000 times | – |
| CC(=O)OC[C@H]1O[C@@H](OC(=O)[C@]23CCC(C)(C)C[C@H]2[C@H]2C(=O)C=C4[C@@]5(C)C=C(C#N)C(=O)C(C)(C)[C@@H]5CC[C@@]4(C)[C@]2(C)CC3)[C@H](OC(C)=O)C(OC(C)=O)[C@H]1OC(C)=O (stereo partly drawn) [Compound 18] | – | more potent than CDDO |
